{"sequences": {"note": "The chains behind the UniProt entries cited, without tags or fusion partners. Residues count along the entry.", "UniProt P15391, residues 20-556": "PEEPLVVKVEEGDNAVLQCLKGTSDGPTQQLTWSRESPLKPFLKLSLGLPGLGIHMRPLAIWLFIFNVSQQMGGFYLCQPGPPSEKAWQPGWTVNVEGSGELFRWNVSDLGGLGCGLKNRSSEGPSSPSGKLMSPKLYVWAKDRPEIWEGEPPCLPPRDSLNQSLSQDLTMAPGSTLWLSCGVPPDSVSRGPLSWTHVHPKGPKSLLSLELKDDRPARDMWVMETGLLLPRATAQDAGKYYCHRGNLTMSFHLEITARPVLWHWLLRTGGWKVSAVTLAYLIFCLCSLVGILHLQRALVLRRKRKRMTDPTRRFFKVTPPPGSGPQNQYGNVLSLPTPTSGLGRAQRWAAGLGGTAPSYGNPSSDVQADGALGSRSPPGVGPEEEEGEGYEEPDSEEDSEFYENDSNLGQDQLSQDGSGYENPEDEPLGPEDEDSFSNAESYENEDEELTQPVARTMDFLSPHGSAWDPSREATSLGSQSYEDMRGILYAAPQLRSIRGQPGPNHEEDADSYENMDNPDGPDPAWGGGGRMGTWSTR"}, "source": "patent US20190022245A1", "molecular_target": "CD19 on cells (human (on human cell lines)) (UniProt P15391)", "assay": "binding to Raji cells; also delivery of Lipo/DOX to CD19 positive cells", "note": "Results are given in words; binding and its absence hold for the method and conditions named. Some results given as binding are weak or reduced against the parent protein; the word gives no strength.", "data": [{"binder": "h15-2b scFv × CD19 Fab (monovalent anti-mPEG (h15-2b) anti-CD19 BsAb, example 2.4) (bispecific antibody) heavy: EVQLVESGGGLVQPGGSLRLSCAASGFTFSSSWMNWVRQAPGKGLEWVGRIYPGDGDTNYNGKFKGRFTISRDDSKNSLYLQMNSLKTEDTAVYYCARSGFITTVLDFDYWGQGTLVTVSSASTKGPSVFPLAPSSKSTSGGTAALGCLVKDYFPEPVTVSWNSGALTSGVHTFPAVLQSSGLYSLSSVVTVPSSSLGTQTYICNVNHKPSNTKVDKRV light: EIVLTQSPDFQSVTPKEKVTITCRASESVDTFGISFMNWFQQKPDQSPKLLIHAASNQGSGVPSRFSGSGSGTDFTLTINSLEAEDAATYYCQQSKEVPFTFGGGTKVEIKTVAAPSVFIFPPSDEQLKSGTASVVCLLNNFYPREAKVQWKVDNALQSGNSQESVTEQDSKDSTYSLSSTLTLSKADYEKHKLYACEVTHQGLSSPVTKSFNRGECGEQKLISEEDLGGGGSGGGGSGGGGSQLDIQMTQSPSSLSASVGDRVTITCKASQDVNTSVAWYQQKPGKAPKLLIYWASTRHTGVPSRFSGSGSGTDFTFTISSLQPEDIATYYCLQYINYPYTFGQGTKLEIKRGGGGSEVQLVESGGGLVQPGGSLKLSCAASGFTFSNYWMNWVRQASGKGLEWVGEIRSKSNNYATHYAESVKGRFTISRDDSKNTAYLQMNSLKTEDTAVYYCTNRYYWGQGTLVTVSS", "values": [{"measurement": "binding", "value": "binds"}]}]}
